Data as given in PubChem BioAssay AID1259290 (Sanger Institute, 2017).
Here is a random part of 794 reagents. In the full data, 9 (1.1%) were called active. 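Calls rest on knock-down alone, not drug synergy; synergy above 0.15 was grouped apart and does not affect calls.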 Viability is capped at 1. Not stated in the record: the amount of reagent, the time to read-out.

- Screen: 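siRNA screen across the kinome seeking synthetic lethal partners for BYL719, cetuximab or trametinib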 (primary screen)
- Cell system: human SNUC1 colorectal cancer cells
- Reagent: siRNA pool against human genes
- Challenge: anchor drugs BYL719 1 µM, cetuximab 5 µg/ml or trametinib 10 nM, or DMSO vehicle alone
- Measurement: 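Cell viability relative to a non-targeting siRNA control, replicate-averaged, as robust z-score for knock-down alone, plus a synergy score for each anchor drug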
- Reading the numbers: viability z-score, siRNA alone: higher = more viable cells; low values mean essential gene; viability vs control, siRNA alone: higher = more viable cells; synergy score with BYL719 and synergy score with Cetuximab and synergy score with Trametinib: higher = stronger synthetic lethal effect with drug
- Hit rule: 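a knock-down without drug scoring a robust z under -3 counts as essential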
- Meaning of the calls: active = essential: knock-down alone cut viability (z below -3); inactive = no clear viability loss with knock-down alone

gene | PubChem SID | viability z-score, siRNA alone | viability vs control, siRNA alone | synergy score with BYL719 | synergy score with Cetuximab | synergy score with Trametinib | outcome
DMPK (DM1 protein kinase) | SID135620855 | 0.122 | 0.927 | -0.139 | 0.121 | 0.0428 | inactive
MAST4 | SID135625002 | 0.203 | 0.934 | -0.125 | 0.00741 | -0.065 | inactive
BUB1B (BUB1 mitotic checkpoint serine/threonine kinase B) | SID152154799 | 0.247 | 0.938 | -0.0735 | -0.0303 | 0.123 | inactive
TCF12 (transcription factor 12) | SID134311750 | 0.936 | 1 | -0.198 | -0.0447 | -0.105 | inactive
CHKA (choline kinase alpha) | SID135621235 | -0.3 | 0.889 | 0.0318 | -0.0477 | 0.0292 | inactive
PSKH1 (protein serine kinase H1) | SID135620975 | 0.936 | 1 | -0.198 | -0.0447 | -0.0216 | inactive
SRP72 (signal recognition particle 72) | SID135623816 | 0.936 | 1 | -0.198 | 0.0556 | -0.176 | inactive
CDKL2 (cyclin dependent kinase like 2) | SID152156267 | -1.13 | 0.814 | -0.119 | -0.162 | -0.0535 | inactive
MAPKAPK3 (MAPK activated protein kinase 3) | SID56478946 | 0.736 | 0.982 | -0.0306 | 0.0732 | 0.0616 | inactive
HIPK3 (homeodomain interacting protein kinase 3) | SID152151658 | -0.0103 | 0.915 | -0.078 | -0.0346 | 0.0201 | inactive
MUSK (muscle associated receptor tyrosine kinase) | SID56478536 | 0.936 | 1 | 0.111 | 0.169 | 0.226 | inactive
MAPK14 (mitogen-activated protein kinase 14) | SID135620690 | -0.291 | 0.889 | -0.218 | 0.00239 | 0.0294 | inactive
LMTK3 (lemur tail kinase 3) | SID152150242 | 0.0885 | 0.924 | -0.088 | -0.0521 | 0.0511 | inactive
TBK1 (TANK binding kinase 1) | SID56478726 | 0.16 | 0.93 | -0.163 | -0.0015 | -0.0415 | inactive
ROCK2 (Rho associated coiled-coil containing protein kinase 2) | SID135620850 | 0.683 | 0.977 | -0.0269 | 0.0234 | 0.125 | inactive
TAOK1 (TAO kinase 1) | SID152151735 | 0.415 | 0.953 | -0.236 | -0.0896 | -0.0394 | inactive
ITPKC (inositol-trisphosphate 3-kinase C) | SID56479112 | 0.936 | 1 | 0.0404 | 0.0279 | 0.0682 | inactive
TTBK1 (tau tubulin kinase 1) | SID135620866 | 0.936 | 1 | 0.0333 | -0.0266 | 0.0329 | inactive
RELA (RELA proto-oncogene, NF-kB subunit) | SID135620694 | -0.724 | 0.85 | -0.0213 | 0.103 | 0.0118 | inactive
DYRK2 (dual specificity tyrosine phosphorylation regulated kinase 2) | SID152156553 | 0.936 | 1 | -0.198 | -0.0447 | 0.0856 | inactive
PMVK (phosphomevalonate kinase) | SID135621255 | -1.58 | 0.773 | -0.127 | 0.0793 | -0.0481 | inactive
MPP1 (MAGUK p55 scaffold protein 1) | SID56479235 | -1.86 | 0.748 | -0.142 | -0.0231 | -0.0607 | inactive
PAPSS2 (3'-phosphoadenosine 5'-phosphosulfate synthase 2) | SID152148635 | 0.872 | 0.994 | -0.179 | -0.0258 | 0.0648 | inactive
ULK3 (unc-51 like kinase 3) | SID152148646 | 0.663 | 0.975 | -0.218 | 0.111 | -0.215 | inactive
HCK (HCK proto-oncogene, Src family tyrosine kinase) | SID135620622 | -0.303 | 0.888 | -0.146 | 0.0841 | -0.0596 | inactive
MAP3K2 (mitogen-activated protein kinase kinase kinase 2) | SID135620706 | 0.867 | 0.994 | 0.0622 | -0.0259 | -0.0644 | inactive
RNASEL (ribonuclease L) | SID56478962 | -0.0524 | 0.911 | -0.0873 | 0.0692 | -0.0166 | inactive
PRKCH (protein kinase C eta) | SID56478829 | 0.936 | 1 | -0.0571 | -0.0447 | -0.0101 | inactive
MAPK1 (mitogen-activated protein kinase 1) | SID152148532 | 0.705 | 0.979 | 0.0228 | -0.0647 | 0.0765 | inactive
SKAP1 (src kinase associated phosphoprotein 1) | SID152154182 | -1.09 | 0.817 | -0.308 | -0.15 | -0.0586 | inactive
CAMKK1 (calcium/calmodulin dependent protein kinase kinase 1) | SID135620905 | 0.666 | 0.976 | -0.135 | -0.0585 | -0.0383 | inactive
PRKAB2 (protein kinase AMP-activated non-catalytic subunit beta 2) | SID134312706 | -0.381 | 0.881 | -0.127 | -0.0022 | 0.118 | inactive
MAST3 (microtubule associated serine/threonine kinase 3) | SID152151496 | -0.113 | 0.905 | -0.19 | 0.188 | 0.0649 | inactive
MLKL (mixed lineage kinase domain like pseudokinase) | SID56479010 | 0.525 | 0.963 | -0.109 | 0.197 | 0.0503 | inactive
LIMK2 (LIM domain kinase 2) | SID152148517 | -0.81 | 0.843 | -0.00721 | 0.0856 | -0.072 | inactive
HASPIN (histone H3 associated protein kinase) | SID152153141 | 0.852 | 0.992 | -0.204 | -0.0401 | -0.00483 | inactive
CDC42BPA (CDC42 binding protein kinase alpha) | SID152147424 | 0.936 | 1 | -0.0748 | -0.0176 | -0.179 | inactive
CASP8 (caspase 8) | SID135620682 | 0.936 | 1 | -0.15 | -0.0447 | -0.0847 | inactive
PRKCQ (protein kinase C theta) | SID56478674 | 0.135 | 0.928 | 0.103 | 0.0795 | 0.022 | inactive
SRPK3 (SRSF protein kinase 3) | SID135620894 | -1.22 | 0.806 | 0.0153 | -0.0412 | -0.181 | inactive
TSSK4 (testis specific serine kinase 4) | SID56478999 | 0.936 | 1 | -0.179 | -0.0447 | 0.00629 | inactive
LCK (LCK proto-oncogene, Src family tyrosine kinase) | SID152150546 | 0.936 | 1 | -0.198 | -0.0293 | -0.165 | inactive
EIF2AK2 (eukaryotic translation initiation factor 2 alpha kinase 2) | SID56478676 | 0.452 | 0.956 | -0.185 | -0.0864 | 0.0389 | inactive
CDKN1C (cyclin dependent kinase inhibitor 1C) | SID56478604 | 0.936 | 1 | -0.106 | -0.0447 | 0.0941 | inactive
KIT (KIT proto-oncogene, receptor tyrosine kinase) | SID152151885 | 0.68 | 0.977 | -0.212 | 0.141 | 0.0469 | inactive
SYNCRIP (synaptotagmin binding cytoplasmic RNA interacting protein) | SID134320219 | -0.611 | 0.861 | -0.109 | -0.025 | 0.115 | inactive
RPS6KA3 (ribosomal protein S6 kinase A3) | SID152150758 | -0.0879 | 0.908 | -0.0769 | -0.133 | -0.0307 | inactive
YES1 (YES proto-oncogene 1, Src family tyrosine kinase) | SID152156078 | -0.611 | 0.861 | -0.116 | -0.0283 | -0.0894 | inactive
CALM1 (calmodulin 1) | SID152156420 | -1.92 | 0.743 | -0.135 | 0.0313 | -0.0388 | inactive
CDK8 (cyclin dependent kinase 8) | SID56478602 | 0.936 | 1 | -0.198 | -0.0447 | 0.0617 | inactive
